{"sequences": {"note": "Amino acid sequences for entries named in this document (tags omitted).", "UniProt P43006": "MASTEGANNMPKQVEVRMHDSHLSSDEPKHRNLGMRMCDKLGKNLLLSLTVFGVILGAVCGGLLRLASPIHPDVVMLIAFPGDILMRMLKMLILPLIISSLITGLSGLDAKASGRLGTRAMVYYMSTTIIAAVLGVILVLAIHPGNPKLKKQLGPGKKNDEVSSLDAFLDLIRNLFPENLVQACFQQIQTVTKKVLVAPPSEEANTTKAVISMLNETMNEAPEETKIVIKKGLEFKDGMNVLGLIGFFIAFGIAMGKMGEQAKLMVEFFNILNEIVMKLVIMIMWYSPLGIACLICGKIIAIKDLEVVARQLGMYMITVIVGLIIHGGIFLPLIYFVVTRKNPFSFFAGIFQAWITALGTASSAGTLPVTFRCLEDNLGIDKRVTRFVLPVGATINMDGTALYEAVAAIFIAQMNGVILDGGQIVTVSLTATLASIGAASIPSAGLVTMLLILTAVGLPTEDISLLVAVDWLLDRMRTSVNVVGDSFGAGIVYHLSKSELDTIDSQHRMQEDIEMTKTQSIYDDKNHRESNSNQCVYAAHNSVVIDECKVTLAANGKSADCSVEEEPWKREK"}, "source": "paper PMC11912016", "biological_target": "T1, Crystallin alpha B (CRYAB) (mouse (endogenous in NAcc)) (UniProt P23927)", "T1 sequence": "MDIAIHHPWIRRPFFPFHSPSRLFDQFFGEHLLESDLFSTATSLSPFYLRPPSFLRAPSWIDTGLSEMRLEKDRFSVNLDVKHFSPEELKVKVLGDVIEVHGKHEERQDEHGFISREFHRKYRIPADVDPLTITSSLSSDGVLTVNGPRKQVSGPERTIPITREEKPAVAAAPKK", "assay": "co-IP; NAcc samples of cocaine-treated (10 mg/kg) mice, CRYAB antibody overnight at 4°C, protein A/G beads, eluate blotted with EAAT2 antibody", "note": "No constants are given. Whether binding was seen depends on the method and setting. In cells and extracts the contact can be indirect. Some entries that bind do so weakly or less than the wild type.", "data": [{"substance": "excitatory amino acid transporter 2 (EAAT2) (from UniProt P43006 1-572)", "values": [{"measurement": "binding", "result": "binds"}]}]}
